Experimental findings from publication PMC8817016 are described below.

Sequences of proteins named here, by UniProt entry; tags and fusion partners are left off.
UniProt Q7Z434: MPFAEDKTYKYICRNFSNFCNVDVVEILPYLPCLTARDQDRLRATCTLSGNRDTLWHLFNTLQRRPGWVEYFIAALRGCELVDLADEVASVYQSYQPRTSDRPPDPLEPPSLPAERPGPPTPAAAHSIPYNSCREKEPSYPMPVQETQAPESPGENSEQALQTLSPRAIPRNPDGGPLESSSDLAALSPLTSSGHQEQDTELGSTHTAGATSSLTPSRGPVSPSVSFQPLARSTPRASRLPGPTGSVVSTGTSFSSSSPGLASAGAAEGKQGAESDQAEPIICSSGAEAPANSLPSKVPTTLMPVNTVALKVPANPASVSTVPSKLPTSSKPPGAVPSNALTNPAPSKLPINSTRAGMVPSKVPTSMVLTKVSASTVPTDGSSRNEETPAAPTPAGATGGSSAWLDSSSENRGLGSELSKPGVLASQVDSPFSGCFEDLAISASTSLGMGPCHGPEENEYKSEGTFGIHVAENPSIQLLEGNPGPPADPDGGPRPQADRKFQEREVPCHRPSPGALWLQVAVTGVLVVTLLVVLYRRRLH
UniProt F5HF68: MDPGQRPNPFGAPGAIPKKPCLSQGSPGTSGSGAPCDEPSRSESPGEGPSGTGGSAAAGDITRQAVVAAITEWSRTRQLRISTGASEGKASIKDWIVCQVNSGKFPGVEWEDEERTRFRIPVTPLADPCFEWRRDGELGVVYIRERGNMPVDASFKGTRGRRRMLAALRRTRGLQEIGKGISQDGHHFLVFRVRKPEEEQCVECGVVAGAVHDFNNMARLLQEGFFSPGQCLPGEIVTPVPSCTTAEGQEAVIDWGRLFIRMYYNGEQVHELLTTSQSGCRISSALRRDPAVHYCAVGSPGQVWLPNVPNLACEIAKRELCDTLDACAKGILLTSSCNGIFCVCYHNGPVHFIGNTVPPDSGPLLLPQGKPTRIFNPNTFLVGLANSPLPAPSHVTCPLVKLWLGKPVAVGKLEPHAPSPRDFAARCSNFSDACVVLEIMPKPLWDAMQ

These are yes or no findings as the source states them, for the method shown. For some assays here: Binding seen in cells or lysates may run through a third protein. Some entries that bind do so weakly or less than the wild type. For some assays here: Sequences can lack the tags named with a protein.

One assay has as its target Flag-MAVS (UniProt Q7Z434). Nature of the assay: co-IP; total-cell extracts of 293T cells (wild type or MAVS KO) co-transfected with vIRF-1, TUFM-V5 and/or Flag-MAVS for 24 h; anti-V5 immunoprecipitation (Fig. 1F), bait of Fig. 1G and 1H not told; RIPA-B buffer lacking SDS.
For the next assay, the target named is T1, GST-TPPP3 (UniProt Q9BW30).
T1 sequence: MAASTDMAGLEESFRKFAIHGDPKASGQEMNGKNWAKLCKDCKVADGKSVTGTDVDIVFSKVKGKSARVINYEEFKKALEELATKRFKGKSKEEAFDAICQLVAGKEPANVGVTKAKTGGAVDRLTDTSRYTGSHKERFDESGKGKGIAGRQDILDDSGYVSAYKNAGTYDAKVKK
The assay can be described thus: pull-down; GST or GST-fusion protein (1 µg) on glutathione sepharose-4B beads incubated with purified vIRF-1-T7 at 4 °C overnight in PBS plus 1% Triton X-100; vIRF-1 detected by anti-vIRF-1 antibody; both purified.

The target in assay [1] is T2, ATP synthase γ, endogenous in mDRM of iBCBL-1 cells (human (endogenous in iBCBL-1)) (UniProt P36542).
T2 sequence: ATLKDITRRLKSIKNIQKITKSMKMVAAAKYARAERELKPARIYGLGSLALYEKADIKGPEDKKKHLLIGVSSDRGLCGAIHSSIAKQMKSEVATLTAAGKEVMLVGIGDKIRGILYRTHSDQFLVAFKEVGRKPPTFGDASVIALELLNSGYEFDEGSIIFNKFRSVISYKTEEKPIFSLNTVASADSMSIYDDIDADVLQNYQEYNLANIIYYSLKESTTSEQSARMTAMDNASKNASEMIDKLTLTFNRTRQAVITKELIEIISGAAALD
Nature of the assay: far-Western, overlay or dot blot; mDRM proteins of iBCBL-1 cells (Dox 2 days) separated by 2D gel electrophoresis, transferred to PVDF, blocked with 5% nonfat dry milk in TBS-T, incubated with 1 µg/ml purified vIRF-1-T7 or EGFP-T7 for 3 h at room temperature; HRP-conjugated anti-T7 antibody; reactive spots identified by MALDI-TOF mass spectrometry; only the binder purified.

The target in assay [2] is T3, trifunctional enzyme subunit β, endogenous in mDRM of iBCBL-1 cells (human (endogenous in iBCBL-1)) (UniProt P55084).
T3 sequence: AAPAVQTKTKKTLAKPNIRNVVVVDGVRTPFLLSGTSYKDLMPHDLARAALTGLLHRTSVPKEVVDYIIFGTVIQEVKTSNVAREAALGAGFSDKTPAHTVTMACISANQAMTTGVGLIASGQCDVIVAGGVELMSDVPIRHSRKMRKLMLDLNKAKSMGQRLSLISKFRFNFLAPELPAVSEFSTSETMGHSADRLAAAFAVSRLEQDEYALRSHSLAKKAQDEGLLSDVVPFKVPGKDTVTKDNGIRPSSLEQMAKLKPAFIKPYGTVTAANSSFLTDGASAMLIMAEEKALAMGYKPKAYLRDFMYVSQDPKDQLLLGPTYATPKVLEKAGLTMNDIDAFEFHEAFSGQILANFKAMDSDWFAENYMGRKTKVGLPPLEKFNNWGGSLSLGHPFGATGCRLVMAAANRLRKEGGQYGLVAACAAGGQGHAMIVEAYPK
Described as above.

The target of assay [3] is T4, tubulin polymerization promoting protein 3 (TPPP3), endogenous in mDRM of iBCBL-1 cells (human (endogenous in iBCBL-1)) (UniProt Q9BW30).
T4 sequence: T1 sequence
The assay is described as above.

As for “vIRF-1, transfected in 293T cells (from UniProt F5HF68 1-449)”, the binding entry with Flag-MAVS is recorded as “binds”.

On to “vIRF-1-T7 (viral IFN regulatory factor 1 of human herpesvirus 8, T7-tagged, purified recombinant) (from UniProt F5HF68 1-449)”, for which the binding entry (with GST-TPPP3; in assay [1]; in assay [2]; in assay [3]) was “binds” each time.
